Test results published in patent US11491155B2, “Salt of a pyrimido[6,1-A]isoquinolin-4-one compound” (VERONA PHARMA PLC, priority 2015, dated 2022).
At least one compound was matched to its structure with a doubt left.

Experiment: Physico-chemical characteristics of salt candidates: solubility in water, pH of aqueous suspension/solution, form post water maturation
Conditions: listed as Naphthalene-2-sulfonic

COc1cc2c(cc1OC)-c1c/c(=N\c3c(C)cc(C)cc3C)n(CCNC(N)=O)c(=O)n1CC2 [Naphthalene-2-sulfonate]
pH of aqueous suspension/solution: 4.74
